Laboratory results: patent US20060234208A1, “Novel mechanism for hiv-1 entry into host cells and peptides inhibiting this mechanism” (priority 2002, published 2006)
Some of these results come from one statement about several compounds together.

Legend:
Format in all cases: cell-based, HIV-1
[1] = test system: TAT+/gp120-LV entry into C8166 cells; test: TAT+/gp120-LV entry into C8166 cells after co-culture with U937/TAT cells (Examples IV and V); conditions: 4 h co-culture with U937/TAT cells; for reversion of TAT+/gp120-LV entry (percent variation of entry): 100 μM peptide; for concentration at which inhibitory effect is still visible: peptides incubated with protease inhibitors (aprotinin or mix)
Method: Transduction with HIV-1 -derived lentivirus. Vector stocks were prepared by transient co-transfection of 293T cells with the following combinations of plasmids: pRRL.hPGK.GFP.SIN-18+pCMV.DR8.2+pMD.G (Naldini et al. (1996), supra) (VSV-G-LV) or pEnvHXB (Huang et al., J. Virol. 72 (1998), 8952-8960) (TAT+/gp120-LV); pRRL.hPGK.GFP.SIN-18+pCMV.DR8.74 +pRSV-Rev ((Dull et al. (1998), supra)+pEnvHXB (TAT/gp120 -LV). Vector concentration was determined by HIV-1 p24 Core profile ELISA following the manufacturer's instructions. The entry experiments were conducted on 10^5 cells per well of a 48-well plate in the presence of 8 μg/ml polybrene. The number of GFP-positive cells was analysed by FACS.

[2] = test system: TAT+/gp120-LV entry into C8166 cells; test: TAT+/gp120-LV basal entry into C8166 cells (Example II); conditions: 100 μM peptide; GFP-positive cells after 72 h
[3] = test system: TAT-/gp120-LV entry into C8166 cells; test: TAT-/gp120-LV entry into C8166 cells after co-culture with U937/PINCO or U937/TAT cells (Example III); conditions: 100 μM peptide; 4 h co-culture with U937/TAT cells (3 nM TAT released)

Row | Substance | reversion of TAT+/gp120-LV entry (percent variation of entry) [1] | reversion of basal TAT+/gp120-LV entry (percent variation of entry) [2] | further results
1 | RDKKKV [SEQ ID NO. 42] | more than 15% | more than 15% | –
2 | RDKKKQ [SEQ ID NO. 41] | – | more than 15% | –
3 | RDKKKK [SEQ ID NO. 40] | more than 15% | more than 15% | reversion of TAT-/gp120-LV entry (percent variation of entry) [3]: more than 15%
4 | KDKKEK [SEQ ID NO. 45] | more than 15% | – | reversion of TAT-/gp120-LV entry (percent variation of entry) [3]: more than 15%
5 | RDKTQK [SEQ ID NO. 52] | – | more than 15% | –
6 | RDKQQK [SEQ ID NO. 49] | more than 15% | – | –
7 | RDKKQQ [SEQ ID NO. 47] | more than 15% | – | –
8 | RDKVKK [SEQ ID NO. 44] | – | – | concentration at which inhibitory effect is still visible [1]: ≤ 5 µM
9 | DRKKKV [SEQ ID NO. 43] | – | – | reversion of TAT-/gp120-LV entry (percent variation of entry) [3]: more than 15%
10 | RDKVQK [SEQ ID NO. 50] | more than 15% | – | –
11 | RNKRKQ [SEQ ID NO. 51] | – | more than 15% | –
12 | CSFNIT [SEQ ID NO. 4] | – | – | concentration at which inhibitory effect is still visible [1]: ≤ 5 µM
